Strings that start with PEPTIDE1 are HELM notation: dots part the residues, brackets hold end groups and non-standard residues.

A short description of the data set: general procedure: Fmoc solid-phase peptide synthesis; MBHA resin (100–200 mesh, 0.8 mM/g); TBTU or DMT/NMM/TsO− with DIEA. The settings on record: whole synthesis.
For “PEPTIDE1{[Dmt].[Tic].[D-Dap].F.F.D.[am]}$PEPTIDE1,PEPTIDE1,3:R3-6:R3$$$V2.0”, the crude yield amounted to 18%. As for “PEPTIDE1{[Dmt].[Tic].[dK].F.D.[Tic].[Dmt].[am]}$PEPTIDE1,PEPTIDE1,3:R3-5:R3$$$V2.0”, the crude yield is 19%. Consider “PEPTIDE1{[Dmt].[Tic].[dK].F.D.[am]}$PEPTIDE1,PEPTIDE1,3:R3-5:R3$$$V2.0”, for which the crude yield was 11% and the difficulty met result was “In case of analog 5, the cyclic dimer was the main product”.

As to “PEPTIDE1{[Dmt].[Tic].[dK].F.F.D.[am]}$PEPTIDE1,PEPTIDE1,3:R3-6:R3$$$V2.0”, the crude yield is listed as 28%.

Take “PEPTIDE1{[Dmt].[Tic].[dK].F.[2,4F2-Phe].D.[am]}$PEPTIDE1,PEPTIDE1,3:R3-6:R3$$$V2.0”: the crude yield came out at 25%. For the substance “PEPTIDE1{[Dmt].[Tic].[dK].F.[D-2Nal].D.[am]}$PEPTIDE1,PEPTIDE1,3:R3-6:R3$$$V2.0”, the crude yield is 25%.

These data come from PMC7570497 (Molecules, 2020).
